# Assay results as given in PubChem BioAssay AID463183 (Sanford-Burnham Center for Chemical Genomics, 2010).
# This is one part of the list. Further columns of the screen follow, without active or inactive calls. Compounds called inactive in the main read-out are mostly missing here.
# Assay: hepatocyte lipid droplet accumulation inhibitors, confirmation, imaging, AML12 mouse hepatocytes, single concentration, high-content (AID 463183);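 further: cells counted after overnight compound exposure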
# Settings: BODIPY lipid droplet imaging, measured here: cell count, cytotoxicity, at 5.2 µM, droplets induced with 100 µM oleic acid
row,SMILES,cell count [cells]
1,CCOc1ccc(CCNC(=O)c2c(C)nn(-c3ccccc3)c2Cl)cc1OCC,1580
2,CSc1ccccc1NC(=O)C1=CC(c2cccs2)=NS(=O)(=O)N1C,1610
3,Nc1nc(-c2ccccc2)c(N=Nc2cccc3ccccc23)s1,1610
4,COc1ccc(CNC(=O)CN2C(=O)NC(C)(c3cccc4ccccc34)C2=O)cc1OC (stereo unspecified),1650
5,COCCNC(=S)N1CCc2cc(OC)c(OC)cc2C1COc1cc(C)cc(C)c1 (stereo unspecified),1590
6,Cc1cc(C)nc(Nc2nc3ccccc3[nH]2)n1,1660
7,N/C(=N/O)c1nc(N2CCCC2)nc(N(c2ccccc2)c2ccccc2)n1,1610
8,C=C(C)C1CC=C(C)/C(=N/Nc2ccccc2[N+](=O)[O-])C1 (stereo unspecified),1640
9,CCOc1ccc(CCNC(=O)COC(=O)c2cccnc2OCC)cc1OCC,1660
10,c1ccc(-c2nc(N3CCOCC3)cc(N3CCOCC3)n2)cc1,1560
11,O=C(CSC1=NC2(CCCCCC2)N=C1c1ccccc1)Nc1ccc2c(c1)OCCO2,1690
12,COc1ccc(CCn2ccc(O)c(Cc3ccc(Cl)cc3)c2=O)cc1OC,1570
13,CCCc1cc(N2CCCC2)n2nc(C)c(-c3ccccc3)c2n1,1470
14,COC(=O)C1=C(C)N=c2s/c(=C3\C(=O)Nc4ccccc43)c(=O)n2C1c1ccccc1 (stereo unspecified),1580
15,Cc1ccc(CNC(=O)c2ccc(N3CCC4(CC3)CC(c3ccccc3)=NO4)c(N)c2)cc1,1630
16,CCOc1cc(/C=N\Nc2nc(Nc3ccccc3)nc(N3CCOCC3)n2)ccc1OC(=O)c1ccco1,895
17,N#CC(C#N)=c1ccc2c(c1)N1C(c3ccccc3)=CC(c3ccccc3)C3CCCCC31N=2 (stereo unspecified),1630
18,CCOc1ccccc1NC(=O)N1CCC(C(=O)c2ccc(F)cc2)CC1,1610
19,Cc1cccc(NC2=C(NCCO)C(=O)c3ccccc3C2=O)c1,1560
20,O=C(Nc1ccccc1)C1=C[C@@H](C2CCCCC2)C[C@@H](OCc2ccc(CO)cc2)O1,1660
21,O=C(Nc1cccc(Br)c1)c1cccc(OC(=S)N2CCOCC2)c1,1680

# Ordered by molecular weight (largest number first): part of the list above.
row,SMILES,cell count [cells]
9,CCOc1ccc(CCNC(=O)COC(=O)c2cccnc2OCC)cc1OCC,1660
7,N/C(=N/O)c1nc(N2CCCC2)nc(N(c2ccccc2)c2ccccc2)n1,1610
19,Cc1cccc(NC2=C(NCCO)C(=O)c3ccccc3C2=O)c1,1560
